# ± gives the standard deviation of the averaged measurements. Only a part is listed here, and it is no random draw.
# Chains of the proteins cited; added tags and fusions are not shown. Lines headed by an entry give the natural chain unless they say otherwise; changes in a name come on top.
# UniProt Q96K76: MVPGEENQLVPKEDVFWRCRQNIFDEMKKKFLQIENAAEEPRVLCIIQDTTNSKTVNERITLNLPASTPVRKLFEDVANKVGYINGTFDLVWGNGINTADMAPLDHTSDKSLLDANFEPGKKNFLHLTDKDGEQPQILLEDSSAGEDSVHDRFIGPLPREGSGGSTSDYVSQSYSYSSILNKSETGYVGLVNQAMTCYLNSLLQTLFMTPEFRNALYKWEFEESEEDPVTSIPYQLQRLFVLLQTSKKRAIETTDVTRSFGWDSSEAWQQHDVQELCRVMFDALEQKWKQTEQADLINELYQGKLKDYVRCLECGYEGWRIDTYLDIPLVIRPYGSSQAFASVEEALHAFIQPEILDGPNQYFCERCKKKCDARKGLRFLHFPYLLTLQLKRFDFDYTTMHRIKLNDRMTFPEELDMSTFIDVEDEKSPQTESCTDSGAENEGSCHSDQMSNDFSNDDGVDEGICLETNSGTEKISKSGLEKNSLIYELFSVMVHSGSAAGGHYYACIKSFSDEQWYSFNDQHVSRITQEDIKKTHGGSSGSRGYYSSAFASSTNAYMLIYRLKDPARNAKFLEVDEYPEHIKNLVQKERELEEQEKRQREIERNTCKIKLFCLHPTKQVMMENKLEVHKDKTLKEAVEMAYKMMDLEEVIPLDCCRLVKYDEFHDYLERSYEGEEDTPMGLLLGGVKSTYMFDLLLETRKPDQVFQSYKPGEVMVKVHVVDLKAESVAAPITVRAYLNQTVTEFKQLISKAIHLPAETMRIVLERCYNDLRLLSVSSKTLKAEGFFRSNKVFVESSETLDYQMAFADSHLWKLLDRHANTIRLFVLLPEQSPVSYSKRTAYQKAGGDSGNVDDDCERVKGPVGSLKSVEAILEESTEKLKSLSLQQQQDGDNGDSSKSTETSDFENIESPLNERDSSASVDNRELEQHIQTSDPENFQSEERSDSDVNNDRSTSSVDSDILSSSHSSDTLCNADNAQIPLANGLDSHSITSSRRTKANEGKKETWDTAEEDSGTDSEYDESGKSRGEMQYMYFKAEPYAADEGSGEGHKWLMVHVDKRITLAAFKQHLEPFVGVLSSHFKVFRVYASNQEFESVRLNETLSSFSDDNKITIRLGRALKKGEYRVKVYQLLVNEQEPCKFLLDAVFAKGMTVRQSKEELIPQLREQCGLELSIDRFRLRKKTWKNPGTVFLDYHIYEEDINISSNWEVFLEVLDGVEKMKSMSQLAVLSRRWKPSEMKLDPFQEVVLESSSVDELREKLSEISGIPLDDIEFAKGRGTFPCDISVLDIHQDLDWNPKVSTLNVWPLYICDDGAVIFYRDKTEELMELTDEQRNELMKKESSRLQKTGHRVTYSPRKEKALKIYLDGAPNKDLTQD
# UniProt Q969J2: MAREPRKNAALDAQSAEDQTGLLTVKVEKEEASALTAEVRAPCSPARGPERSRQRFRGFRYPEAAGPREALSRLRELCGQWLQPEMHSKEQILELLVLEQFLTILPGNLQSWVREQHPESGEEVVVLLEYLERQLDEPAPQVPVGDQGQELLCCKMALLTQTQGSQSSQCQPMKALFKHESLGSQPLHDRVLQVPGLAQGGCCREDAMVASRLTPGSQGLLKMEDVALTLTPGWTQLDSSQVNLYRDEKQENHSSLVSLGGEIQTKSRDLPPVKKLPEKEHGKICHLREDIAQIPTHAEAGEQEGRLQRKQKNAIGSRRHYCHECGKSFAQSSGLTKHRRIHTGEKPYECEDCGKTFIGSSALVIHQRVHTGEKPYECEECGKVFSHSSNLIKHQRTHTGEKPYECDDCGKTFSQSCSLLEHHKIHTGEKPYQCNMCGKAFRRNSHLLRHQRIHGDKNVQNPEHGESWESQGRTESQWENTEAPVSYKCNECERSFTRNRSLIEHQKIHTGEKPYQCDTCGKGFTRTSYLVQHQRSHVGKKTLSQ
# UniProt Q96E29: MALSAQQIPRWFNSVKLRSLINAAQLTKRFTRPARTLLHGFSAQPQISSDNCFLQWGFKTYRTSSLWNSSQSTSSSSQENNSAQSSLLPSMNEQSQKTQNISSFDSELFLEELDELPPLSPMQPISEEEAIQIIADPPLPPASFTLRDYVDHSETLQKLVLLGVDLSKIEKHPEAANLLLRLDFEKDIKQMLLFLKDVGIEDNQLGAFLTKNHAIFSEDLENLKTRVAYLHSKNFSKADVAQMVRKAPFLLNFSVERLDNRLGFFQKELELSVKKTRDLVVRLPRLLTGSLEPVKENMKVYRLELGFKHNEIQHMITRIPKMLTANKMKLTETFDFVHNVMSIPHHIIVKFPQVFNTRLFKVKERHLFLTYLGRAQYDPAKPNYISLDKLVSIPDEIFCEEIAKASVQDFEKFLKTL
# UniProt Q96Q11: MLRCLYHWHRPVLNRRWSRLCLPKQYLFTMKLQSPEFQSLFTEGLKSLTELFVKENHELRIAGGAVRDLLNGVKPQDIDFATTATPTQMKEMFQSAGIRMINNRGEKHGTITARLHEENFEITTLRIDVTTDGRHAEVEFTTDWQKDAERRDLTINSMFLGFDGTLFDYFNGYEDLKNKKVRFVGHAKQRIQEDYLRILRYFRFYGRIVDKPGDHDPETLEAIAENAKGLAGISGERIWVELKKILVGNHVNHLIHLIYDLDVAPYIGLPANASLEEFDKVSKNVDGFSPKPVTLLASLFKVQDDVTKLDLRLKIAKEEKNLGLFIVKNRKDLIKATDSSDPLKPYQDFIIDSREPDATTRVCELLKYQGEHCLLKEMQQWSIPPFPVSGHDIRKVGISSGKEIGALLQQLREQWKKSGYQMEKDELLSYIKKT
# UniProt Q96PU4: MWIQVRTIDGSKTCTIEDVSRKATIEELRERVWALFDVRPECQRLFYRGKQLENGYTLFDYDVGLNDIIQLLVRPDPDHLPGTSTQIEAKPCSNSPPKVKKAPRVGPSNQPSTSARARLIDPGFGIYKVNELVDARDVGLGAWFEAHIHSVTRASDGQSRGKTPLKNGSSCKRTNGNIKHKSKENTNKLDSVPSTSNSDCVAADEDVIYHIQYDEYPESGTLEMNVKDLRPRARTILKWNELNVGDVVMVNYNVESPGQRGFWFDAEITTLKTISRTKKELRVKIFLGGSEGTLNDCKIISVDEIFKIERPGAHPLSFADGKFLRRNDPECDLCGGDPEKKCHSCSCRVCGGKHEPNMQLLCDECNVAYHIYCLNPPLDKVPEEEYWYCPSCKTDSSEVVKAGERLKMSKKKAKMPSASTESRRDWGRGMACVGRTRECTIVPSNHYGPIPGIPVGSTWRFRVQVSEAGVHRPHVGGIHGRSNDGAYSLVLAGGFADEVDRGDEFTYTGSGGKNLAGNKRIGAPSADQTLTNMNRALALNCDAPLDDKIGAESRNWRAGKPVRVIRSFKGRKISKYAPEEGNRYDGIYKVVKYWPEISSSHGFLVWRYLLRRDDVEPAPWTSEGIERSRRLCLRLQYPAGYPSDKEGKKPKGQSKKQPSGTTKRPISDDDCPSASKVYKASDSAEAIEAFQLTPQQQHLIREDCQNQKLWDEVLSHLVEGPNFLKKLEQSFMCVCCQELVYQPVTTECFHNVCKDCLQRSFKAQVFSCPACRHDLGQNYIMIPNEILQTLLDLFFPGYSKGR
# UniProt Q96BR5: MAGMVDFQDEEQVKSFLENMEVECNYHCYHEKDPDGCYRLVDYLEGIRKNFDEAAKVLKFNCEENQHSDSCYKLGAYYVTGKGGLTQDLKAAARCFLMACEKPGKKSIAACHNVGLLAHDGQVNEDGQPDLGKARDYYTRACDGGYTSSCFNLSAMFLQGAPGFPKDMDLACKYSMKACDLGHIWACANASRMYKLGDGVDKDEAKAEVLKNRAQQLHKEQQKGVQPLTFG
# UniProt Q96AQ6: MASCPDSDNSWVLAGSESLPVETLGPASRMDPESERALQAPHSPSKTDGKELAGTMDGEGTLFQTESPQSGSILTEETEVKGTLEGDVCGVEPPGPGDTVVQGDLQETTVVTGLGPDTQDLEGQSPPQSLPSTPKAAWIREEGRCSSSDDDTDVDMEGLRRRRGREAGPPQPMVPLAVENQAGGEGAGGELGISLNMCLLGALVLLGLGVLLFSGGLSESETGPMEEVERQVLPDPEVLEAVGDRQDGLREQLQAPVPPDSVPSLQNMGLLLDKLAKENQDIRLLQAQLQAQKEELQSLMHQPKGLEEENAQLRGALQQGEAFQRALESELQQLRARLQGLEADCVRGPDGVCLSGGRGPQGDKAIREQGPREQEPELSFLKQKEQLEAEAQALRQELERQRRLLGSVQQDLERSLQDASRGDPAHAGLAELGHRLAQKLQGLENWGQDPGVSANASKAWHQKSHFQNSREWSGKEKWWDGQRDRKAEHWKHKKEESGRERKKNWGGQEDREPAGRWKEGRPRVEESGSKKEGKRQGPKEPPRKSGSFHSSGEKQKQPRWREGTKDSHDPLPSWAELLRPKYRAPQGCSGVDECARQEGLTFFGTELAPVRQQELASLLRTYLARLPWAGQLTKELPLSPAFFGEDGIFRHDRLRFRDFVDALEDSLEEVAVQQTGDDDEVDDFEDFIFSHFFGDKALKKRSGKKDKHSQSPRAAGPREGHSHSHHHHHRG
# UniProt Q96AT9: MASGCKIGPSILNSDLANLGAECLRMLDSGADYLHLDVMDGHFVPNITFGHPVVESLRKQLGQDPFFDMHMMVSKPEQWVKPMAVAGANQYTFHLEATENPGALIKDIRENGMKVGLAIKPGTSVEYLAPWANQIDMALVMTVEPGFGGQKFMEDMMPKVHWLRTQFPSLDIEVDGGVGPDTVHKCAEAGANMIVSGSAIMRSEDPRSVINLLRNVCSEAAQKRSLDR
# UniProt Q96FK6: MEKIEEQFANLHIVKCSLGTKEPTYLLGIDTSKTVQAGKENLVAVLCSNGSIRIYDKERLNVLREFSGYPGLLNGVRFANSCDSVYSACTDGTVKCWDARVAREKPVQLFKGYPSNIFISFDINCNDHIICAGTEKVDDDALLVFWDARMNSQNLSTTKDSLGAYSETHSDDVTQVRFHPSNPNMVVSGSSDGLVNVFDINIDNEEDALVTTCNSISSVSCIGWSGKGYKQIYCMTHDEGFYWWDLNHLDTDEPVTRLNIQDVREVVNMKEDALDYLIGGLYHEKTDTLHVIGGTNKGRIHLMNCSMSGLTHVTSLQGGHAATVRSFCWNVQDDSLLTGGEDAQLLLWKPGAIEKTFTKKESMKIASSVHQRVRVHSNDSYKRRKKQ
# UniProt Q96BW5: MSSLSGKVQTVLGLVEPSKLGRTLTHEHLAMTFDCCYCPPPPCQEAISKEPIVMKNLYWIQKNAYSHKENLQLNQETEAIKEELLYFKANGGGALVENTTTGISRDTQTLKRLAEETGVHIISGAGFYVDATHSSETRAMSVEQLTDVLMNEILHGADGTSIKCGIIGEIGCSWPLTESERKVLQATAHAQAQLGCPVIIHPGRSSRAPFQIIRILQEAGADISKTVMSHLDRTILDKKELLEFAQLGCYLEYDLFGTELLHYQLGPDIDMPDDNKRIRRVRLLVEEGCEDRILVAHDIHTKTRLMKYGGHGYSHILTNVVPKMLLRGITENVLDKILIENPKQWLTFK
# UniProt Q96Q83: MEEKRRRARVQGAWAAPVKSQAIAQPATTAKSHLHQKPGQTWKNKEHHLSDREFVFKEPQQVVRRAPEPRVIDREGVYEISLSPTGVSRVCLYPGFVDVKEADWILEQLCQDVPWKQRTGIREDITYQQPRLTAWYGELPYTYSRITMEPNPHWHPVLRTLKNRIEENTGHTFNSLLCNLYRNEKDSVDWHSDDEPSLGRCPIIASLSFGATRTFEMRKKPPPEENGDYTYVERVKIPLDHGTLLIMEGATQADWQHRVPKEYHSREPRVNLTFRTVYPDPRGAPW
# UniProt Q93034, whole entry: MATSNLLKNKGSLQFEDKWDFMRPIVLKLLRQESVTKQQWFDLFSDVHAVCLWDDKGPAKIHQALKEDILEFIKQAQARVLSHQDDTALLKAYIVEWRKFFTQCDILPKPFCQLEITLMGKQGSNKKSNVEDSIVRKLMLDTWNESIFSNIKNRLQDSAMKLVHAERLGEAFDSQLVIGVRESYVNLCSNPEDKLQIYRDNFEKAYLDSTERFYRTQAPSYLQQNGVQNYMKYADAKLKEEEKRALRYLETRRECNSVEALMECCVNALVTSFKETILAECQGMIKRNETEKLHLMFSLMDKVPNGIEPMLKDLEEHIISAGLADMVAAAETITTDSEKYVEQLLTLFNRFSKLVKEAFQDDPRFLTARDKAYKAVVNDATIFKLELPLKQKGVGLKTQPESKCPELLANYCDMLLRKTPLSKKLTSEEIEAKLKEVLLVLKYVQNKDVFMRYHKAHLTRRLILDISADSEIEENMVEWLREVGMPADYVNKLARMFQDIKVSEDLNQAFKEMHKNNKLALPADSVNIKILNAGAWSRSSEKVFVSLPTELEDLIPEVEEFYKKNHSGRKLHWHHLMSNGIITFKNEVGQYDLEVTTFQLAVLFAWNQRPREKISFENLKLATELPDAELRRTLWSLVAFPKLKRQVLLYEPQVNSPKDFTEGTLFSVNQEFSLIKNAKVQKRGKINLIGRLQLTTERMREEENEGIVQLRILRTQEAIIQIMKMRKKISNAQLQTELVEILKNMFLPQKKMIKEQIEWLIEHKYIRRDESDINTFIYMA
# Compound: Nc1ncnc2c1ncn2[C@@H]1O[C@H](COP(=O)(O)OP(=O)(O)NP(=O)(O)O)[C@@H](O)[C@H]1O [adenylyl imidodiphosphate]
# Assay: NP40-soluble protein abundance relative to vehicle (solubility fold change) (ratio); higher = more soluble protein in presence of AMP-PNP
# How it was run: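 Jurkat crude lysate (Dounce-homogenised) was treated with eight concentrations from 0.1 to 10 mM for 10 min at room temperature, then 3 min at 37 °C. It was solubilised with 0.8% NP40 and benzonase (60 min, 4 °C) and ultracentrifuged, and the supernatant was TMT-labelled for LC-MS/MS. Intensities were vsn-normalised, and the value is the fold change against the NP40-processed vehicle per replicate, from three independent experiments.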
Target,NP40-soluble protein abundance (concentration: 1mM),NP40-soluble protein abundance (concentration: 2mM),NP40-soluble protein abundance (concentration: 4mM),NP40-soluble protein abundance (concentration: 6mM),NP40-soluble protein abundance (concentration: 8mM),NP40-soluble protein abundance (concentration: 10mM)
UniProt Q96K76 and related entries,0.9994 ± 0.0059,0.965 ± 0.044,0.967 ± 0.018,0.946 ± 0.03,0.935 ± 0.031,0.921 ± 0.036
MRPL38 (UniProt Q96DV4),0.977 ± 0.13,0.984 ± 0.11,0.965 ± 0.13,0.956 ± 0.17,0.939 ± 0.14,0.923 ± 0.17
UniProt Q96B97 and related entries,1.03 ± 0.019,1.07 ± 0.033,1.033 ± 0.0091,1.01 ± 0.039,0.971 ± 0.023,1.02 ± 0.027
UniProt Q96PU5 and related entries,1.05 ± 0.032,1.07 ± 0.045,1.08 ± 0.039,1.05 ± 0.034,1.03 ± 0.059,1.03 ± 0.074
RBMXL1 (UniProt Q96E39),1.03 ± 0.056,1.14 ± 0.046,1.11 ± 0.024,1.19 ± 0.038,1.25 ± 0.059,1.31 ± 0.036
RPRD1A (UniProt Q96P16),0.98 ± 0.013,1.04 ± 0.059,1.01 ± 0.028,1.06 ± 0.082,1.09 ± 0.014,1.06 ± 0.061
UniProt Q96PV6-2,1.01 ± 0.023,1.05 ± 0.038,1.056 ± 0.0033,1.03 ± 0.027,1.055 ± 0.0091,1.07 ± 0.034
UniProt Q96FJ0 and related entries,1.02 ± 0.012,0.989 ± 0.029,1.06 ± 0.013,1.06 ± 0.045,1.08 ± 0.018,1.07 ± 0.014
UniProt Q96ME1-4,0.97 ± 0.015,0.964 ± 0.016,0.993 ± 0.043,0.985 ± 0.024,1 ± 0.018,0.988 ± 0.072
ISL2 (UniProt Q96A47),1.01 ± 0.024,1 ± 0.029,1.02 ± 0.03,0.991 ± 0.017,0.99 ± 0.047,0.974 ± 0.028
UniProt Q96Q89-3|Q96Q89 and related entries,1.03 ± 0.033,1.01 ± 0.021,1.02 ± 0.052,0.988 ± 0.054,0.944 ± 0.046,0.984 ± 0.073
AIDA (UniProt Q96BJ3),1.02 ± 0.012,1.01 ± 0.032,0.993 ± 0.013,0.995 ± 0.021,0.97 ± 0.022,0.978 ± 0.056
ZKSCAN4 (UniProt Q969J2),0.98477 ± 0.00071,0.996 ± 0.023,0.953 ± 0.014,0.992 ± 0.042,1.01 ± 0.041,1.03 ± 0.07
UniProt Q96BW9 and related entries,0.977 ± 0.045,0.948 ± 0.023,1 ± 0.026,1.02 ± 0.013,1.01 ± 0.013,0.985 ± 0.04
UniProt Q96E29 and related entries,0.962 ± 0.025,1 ± 0.016,0.97 ± 0.066,0.957 ± 0.064,0.96 ± 0.051,0.918 ± 0.054
EXOC2 (UniProt Q96KP1),0.984 ± 0.02,0.991 ± 0.048,0.972 ± 0.018,0.994 ± 0.015,1.004 ± 0.003,1 ± 0.026
GTF3C6 (UniProt Q969F1),1.04 ± 0.045,1.07 ± 0.042,1.04 ± 0.032,0.984 ± 0.018,0.99 ± 0.047,1.01 ± 0.035
UniProt Q96HI0 and related entries,0.98 ± 0.012,0.989 ± 0.0019,0.95908 ± 5.7e-06,0.9327 ± 0.0078,0.9166 ± 0.0065,0.917 ± 0.0073
UniProt Q96Q11 and related entries,1.02 ± 0.022,1.02 ± 0.051,1.036 ± 0.0085,1.06 ± 0.045,1.06 ± 0.051,1.05 ± 0.07
UniProt Q96EE3 and related entries,1 ± 0.05,0.954 ± 0.03,1.04 ± 0.012,0.994 ± 0.046,1.09 ± 0.036,1.04 ± 0.012
UHRF2 (UniProt Q96PU4),1.01 ± 0.025,0.997 ± 0.048,0.986 ± 0.038,0.927 ± 0.038,0.886 ± 0.08,0.885 ± 0.07
UniProt Q96ES7,0.975 ± 0.015,1.03 ± 0.038,0.967 ± 0.018,0.993 ± 0.034,0.963 ± 0.048,0.992 ± 0.036
UniProt Q96LT9 and related entries,1.009 ± 0.0063,1.062 ± 0.0089,1.016 ± 0.0023,1.08 ± 0.012,1.089 ± 0.0011,1.1 ± 0.023
UniProt Q96B01 and related entries,1.02 ± 0.025,1.08 ± 0.0072,1.05 ± 0.021,1.06 ± 0.035,1.05 ± 0.051,1.07 ± 0.058
UniProt Q96BR5,1.01 ± 0.029,1.04 ± 0.065,0.999 ± 0.025,1.06 ± 0.023,1.043 ± 0.0083,1.05 ± 0.018
UniProt Q96AQ6 and related entries,1.035 ± 0.0056,1.09 ± 0.066,1.06 ± 0.015,1.03 ± 0.068,1.01 ± 0.013,1.0401 ± 0.001

Target,NP40-soluble protein abundance (concentration: 1mM),NP40-soluble protein abundance (concentration: 2mM),NP40-soluble protein abundance (concentration: 4mM),NP40-soluble protein abundance (concentration: 6mM),NP40-soluble protein abundance (concentration: 8mM),NP40-soluble protein abundance (concentration: 10mM)
UniProt Q96AT9 and related entries,1.09 ± 0.035,1.16 ± 0.088,1.08 ± 0.058,1.03 ± 0.013,1.01 ± 0.031,1.05 ± 0.1
UniProt Q96D53,0.973 ± 0.012,0.923 ± 0.039,0.952 ± 0.022,0.9446 ± 0.009,0.962 ± 0.038,0.958 ± 0.033
OMA1 (UniProt Q96E52),0.986 ± 0.034,0.976 ± 0.017,1 ± 0.03,0.933 ± 0.026,0.965 ± 0.04,0.943 ± 0.033
WDR89 (UniProt Q96FK6),1.07 ± 0.031,1.09 ± 0.051,1.17 ± 0.033,1.18 ± 0.038,1.255 ± 0.0092,1.268 ± 0.011
UniProt Q96AE7 and related entries,1.05 ± 0.039,1.06 ± 0.057,1.03 ± 0.061,0.984 ± 0.032,0.993 ± 0.0063,0.981 ± 0.026
UniProt Q96JJ7,0.991 ± 0.033,0.942 ± 0.057,0.994 ± 0.011,1 ± 0.043,1.02 ± 0.018,1.02 ± 0.028
NRBF2 (UniProt Q96F24),1.02 ± 0.052,1.07 ± 0.037,1.01 ± 0.054,0.947 ± 0.035,0.965 ± 0.048,0.953 ± 0.042
UniProt Q96PY6 and related entries,0.9959 ± 0.0098,0.993 ± 0.021,1 ± 0.038,0.949 ± 0.05,0.956 ± 0.019,0.944 ± 0.018
ZBTB10 (UniProt Q96DT7),0.99 ± 0.022,0.997 ± 0.011,1.03 ± 0.034,0.994 ± 0.042,0.975 ± 0.022,0.996 ± 0.025
SNF8 (UniProt Q96H20),0.983 ± 0.05,0.995 ± 0.039,0.981 ± 0.048,0.957 ± 0.04,0.952 ± 0.031,0.926 ± 0.064
PTER (UniProt Q96BW5),0.958 ± 0.016,0.915 ± 0.025,0.991 ± 0.029,1.02 ± 0.049,1.01 ± 0.036,1.01 ± 0.033
ALKBH3 (UniProt Q96Q83),1.03 ± 0.029,1.05 ± 0.022,1.05 ± 0.05,0.998 ± 0.02,1 ± 0.015,1.04 ± 0.06
UniProt Q96II8 and related entries,1.026 ± 0.0073,1.01 ± 0.035,1.04 ± 0.041,1.01 ± 0.057,1.01 ± 0.08,1.06 ± 0.092
CCDC115 (UniProt Q96NT0),0.994 ± 0.046,1.01 ± 0.043,1.01 ± 0.035,1 ± 0.04,0.968 ± 0.06,0.992 ± 0.041
YIPF6 (UniProt Q96EC8),0.986 ± 0.031,1.01 ± 0.044,0.997 ± 0.045,1.03 ± 0.1,1.02 ± 0.046,1.04 ± 0.035
UniProt Q96AC1 and related entries,1 ± 0.052,0.962 ± 0.018,0.967 ± 0.036,0.973 ± 0.028,1.01 ± 0.035,0.97 ± 0.029
CHMP6 (UniProt Q96FZ7),1.03 ± 0.028,1.05 ± 0.022,1.03 ± 0.038,1.01 ± 0.03,1.02 ± 0.032,0.964 ± 0.033
UniProt Q96DU3 and related entries,0.988 ± 0.013,1.01 ± 0.086,0.992 ± 0.048,1.01 ± 0.062,1.01 ± 0.031,1.01 ± 0.059
UniProt Q96QF0 and related entries,1.04 ± 0.038,1.02 ± 0.037,1.02 ± 0.037,1 ± 0.022,0.978 ± 0.028,0.997 ± 0.029
CUL5 (UniProt Q93034),0.974 ± 0.033,0.913 ± 0.085,0.9849 ± 0.0057,0.959 ± 0.015,0.979 ± 0.017,0.933 ± 0.038
RMI2 (UniProt Q96E14),0.995 ± 0.023,0.998 ± 0.031,0.98 ± 0.037,1 ± 0.035,1 ± 0.068,0.993 ± 0.094
UniProt Q96Q15 and related entries,0.967 ± 0.037,0.96 ± 0.03,1 ± 0.037,0.978 ± 0.048,0.968 ± 0.024,0.998 ± 0.082
DTNBP1 (UniProt Q96EV8),1.05 ± 0.057,1.07 ± 0.062,1.06 ± 0.038,0.982 ± 0.016,0.988 ± 0.043,0.98 ± 0.08
UniProt Q96F07-2,0.989 ± 0.049,0.97 ± 0.087,0.998 ± 0.031,0.938 ± 0.044,0.945 ± 0.033,0.921 ± 0.049
PGM2 (UniProt Q96G03),0.958 ± 0.028,0.871 ± 0.082,0.929 ± 0.027,0.977 ± 0.05,1 ± 0.022,0.941 ± 0.029
UniProt Q96KG9 and related entries,1.01 ± 0.071,0.954 ± 0.012,0.98 ± 0.028,0.9928 ± 0.0091,1 ± 0.019,0.974 ± 0.036

# Shown tab-delimited: part of the list above
Target	NP40-soluble protein abundance (concentration: 1mM)	NP40-soluble protein abundance (concentration: 2mM)	NP40-soluble protein abundance (concentration: 4mM)	NP40-soluble protein abundance (concentration: 6mM)	NP40-soluble protein abundance (concentration: 8mM)	NP40-soluble protein abundance (concentration: 10mM)
WDR89 (UniProt Q96FK6)	1.07 ± 0.031	1.09 ± 0.051	1.17 ± 0.033	1.18 ± 0.038	1.255 ± 0.0092	1.268 ± 0.011
UniProt Q96AE7 and related entries	1.05 ± 0.039	1.06 ± 0.057	1.03 ± 0.061	0.984 ± 0.032	0.993 ± 0.0063	0.981 ± 0.026
UniProt Q96JJ7	0.991 ± 0.033	0.942 ± 0.057	0.994 ± 0.011	1 ± 0.043	1.02 ± 0.018	1.02 ± 0.028

# From the supplement of paper PMC6411743
